Strings that start with PEPTIDE1 are HELM notation: dots part the residues, brackets hold end groups and non-standard residues.
Assay: general procedure: Fmoc solid-phase peptide synthesis; Fmoc-Rink-MBHA Low Loading Resin, 100-200 mesh, 1% DVB cross-linked polystyrene, 0.3-0.4 meq/g (EMD Millipore); diisopropylcarbodiimide/Oxyma; PyAOP/DIPEA for fatty acid-linker
Settings: whole synthesis, analytical RP-HPLC, TFA salt

With “PEPTIDE1{Y.[Aib].Q.G.T.F.T.S.D.F.S.K.[aMeL].L.D.K.[Klip3066570].A.Q.[Aib].A.F.I.E.Y.L.L.A.G.G.P.S.S.G.E.P.P.P.S.E.G.[NH2]}$$$$V2.0” as the substance, how does the “final HPLC purity” value read?
The value was 98.8%.

— patent US20240270821A1 (priority 2023, published 2024)
